Taken from: PubChem BioAssay AID504744 (Drosophila RNAi Screening Center, 2011)
The deposit covers about 23,000 reagents; this is a random part of those that have a named target and a result. Of all reagents, 98 (0.43%) were called active. 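Only hit calls are given; the phospho-dAkt signals, z-scores and hit direction were not deposited.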 Reagents against one gene are numbered here. A plus sign joins genes that one reagent is predicted to hit.

Test: 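Uncover factors, including feedback loops, that control dAkt activation in fly cells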 (primary screen)
Cell system: Drosophila Kc167 cells
Reagent: long dsRNA against Drosophila genes, 250 ng dsRNA per well of a 384-well plate
Duration: 3 days of knock-down, then overnight serum-free starvation before stimulation
Challenge: bovine insulin at 387 nM for 10 minutes after 12 h without serum
Measured: 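Per-well phospho-dAkt level from an in-cell fluorescent antibody stain, divided by a DNA-dye signal; log2 residuals turned into z-scores that take cell number into account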
Call rule: 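Under insulin, a gene counts as a hit if the average z-score of two replicates lies above 2.5 or below -2.5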

| gene | reagent | Call |
| --- | --- | --- |
| Slc25A46b | 1 | inactive |
| Prosbeta6 | 1 | inactive |
| Cubn | 1 | inactive |
| PDCD-5 | 1 | inactive |
| CG10996 | 1 | inactive |
| CG12539 | 1 | inactive |
| CG11425 | 1 | inactive |
| Mau2 | 1 | inactive |
| CG42340 | 1 | inactive |
| CG42340 | 2 | inactive |
| CG42340 | 3 | inactive |
| CG42340 | 4 | inactive |
| Jon65Aii | 1 | inactive |
| CG14770 | 1 | inactive |
| sut2 | 1 | inactive |
| CG18336 | 1 | inactive |
| Vta1 | 1 | inactive |
| Vta1 | 2 | inactive |
| Obsc | 1 | inactive |
| Obsc | 2 | inactive |
| Obsc | 3 | inactive |
| Obsc | 4 | active |
| Obsc | 5 | inactive |
| NijC | 1 | inactive |
| CG33689 | 1 | inactive |
| Ets21C | 1 | inactive |
| CG34393 | 1 | inactive |
| CG34393 | 2 | inactive |
| CG12744 | 1 | inactive |
| dgt6 | 1 | inactive |
| Ccdc85 | 1 | inactive |
| CG7953 | 1 | inactive |
| CG31262 | 1 | inactive |
| CG10834 | 1 | inactive |
| CG13053 | 1 | inactive |
| CG10055 | 1 | inactive |
| ca | 1 | inactive |
| ca | 2 | inactive |
| ca | 3 | inactive |
| CG9759 | 1 | inactive |
| CG14120 | 1 | inactive |
| Mbs | 1 | inactive |
| Mbs | 2 | inactive |
| Mbs | 3 | inactive |
| Or67d | 1 | inactive |
| beat-IIa | 1 | inactive |
| beat-IIa | 2 | inactive |
| RhoGAP5A | 1 | inactive |
| bol | 1 | inactive |
| bol | 2 | inactive |
| bol | 3 | inactive |
| Ctr1B + Poxm | 1 | inactive |
| Rpt3 | 1 | inactive |
| CG18537 | 1 | inactive |
| CG30273 | 1 | inactive |
| pwn | 1 | inactive |
| scra | 1 | inactive |
| Scox | 1 | inactive |
| Polr1A | 1 | inactive |
| CG31928 | 1 | inactive |
| Glut1 | 1 | inactive |
| Glut1 | 2 | inactive |
| Cog2 | 1 | inactive |
| Sgs5bis | 1 | inactive |
| CG13192 | 1 | inactive |
| CG31524 | 1 | inactive |
| mxt | 1 | inactive |
| CG34276 | 1 | inactive |
| S6kII | 1 | inactive |
| CG14339 | 1 | inactive |
| ccb | 1 | inactive |
| mRpS7 | 1 | inactive |
| CG3473 | 1 | inactive |
| CG32582 (retired record) | 1 | inactive |
| mthl7 | 1 | inactive |
| CG18558 | 1 | inactive |
| CG18558 | 2 | inactive |
| Lcp4 | 1 | inactive |
| CG10970 | 1 | inactive |
| CG32333 | 1 | inactive |
| CG32333 | 2 | inactive |
| RpL39 | 1 | inactive |
| CG3107 | 1 | inactive |
| CG14456 | 1 | inactive |
| Dab | 1 | inactive |
| CG13004 | 1 | inactive |
| Pglym78 | 1 | inactive |
| CG34187 (retired record) | 1 | inactive |
| bc10 | 1 | inactive |
| CG1910 | 1 | inactive |
| Cyp6a15Psi | 1 | inactive |
| CG15651 | 1 | inactive |
| CG8916 | 1 | inactive |
| CG13996 | 1 | inactive |
| Mdr50 | 1 | inactive |
| Arglu1 | 1 | inactive |
| CG14881 | 1 | inactive |
| CG2121 | 1 | inactive |
| CG2121 | 2 | inactive |
| CG42361 | 1 | inactive |
| CG13154 | 1 | inactive |
| Lcp1Psi | 1 | inactive |
| Ae2 | 1 | inactive |
| Ae2 | 2 | inactive |
| CR31846 (retired record) | 1 | inactive |
| Ir93a | 1 | inactive |
| Ir93a | 2 | inactive |
| CG13999 | 1 | inactive |
| c-cup | 1 | inactive |
| how | 1 | inactive |
| Dup99B | 1 | inactive |
| CG16890 | 1 | inactive |
| Cen | 1 | inactive |
| NimB5 | 1 | inactive |
| Cog6 | 1 | inactive |
| CG8003 | 1 | inactive |
| CG9541 | 1 | inactive |
| CARPA | 1 | inactive |
| CARPA | 2 | inactive |
| Usp8 | 1 | inactive |
| Cog4 | 1 | inactive |
| otk2 | 1 | inactive |
| eIF5 | 1 | inactive |
| CG8187 | 1 | inactive |
| TkR86C | 1 | inactive |
| CG32132 (retired record) | 1 | inactive |
| CG15484 | 1 | inactive |
| CG15484 | 2 | inactive |
| OtopLc | 1 | inactive |
| OtopLc | 2 | inactive |
| OtopLc | 3 | inactive |
| CG11000 | 1 | inactive |
| CG3124 | 1 | inactive |
| CG15760 | 1 | inactive |
| mle | 1 | inactive |
| CG14535 | 1 | inactive |
| CG1703 | 1 | inactive |
| Dbp73D | 1 | inactive |
| Fpps | 1 | inactive |
| CG33061 | 1 | inactive |
| CG33061 | 2 | inactive |
| Lnpk | 1 | inactive |
| CG11241 | 1 | inactive |
| CG11241 | 2 | inactive |
| Rrp47 | 1 | inactive |
| CSN1a | 1 | inactive |
| CG6356 | 1 | inactive |
| Prp39 | 1 | inactive |
| Art8 | 1 | inactive |
| CG4991 | 1 | inactive |
| CG18004 | 1 | inactive |
| CG33003 | 1 | inactive |
| spen | 1 | inactive |
| CG14369 | 1 | inactive |
| abo | 1 | inactive |
| rempA | 1 | inactive |
| CG4520 | 1 | inactive |
| Chc | 1 | inactive |
| CG5191 | 1 | inactive |
| CG5191 | 2 | inactive |
| CG5191 | 3 | inactive |

A stretch from the list above, for reference:
| gene | reagent | Call |
| --- | --- | --- |
| CG42340 | 1 | inactive |
| CG42340 | 2 | inactive |
| CG42340 | 3 | inactive |
| CG42340 | 4 | inactive |
| Jon65Aii | 1 | inactive |
| CG14770 | 1 | inactive |
| sut2 | 1 | inactive |
| CG18336 | 1 | inactive |
| Vta1 | 1 | inactive |
| Vta1 | 2 | inactive |
| Obsc | 1 | inactive |
| Obsc | 2 | inactive |
| Obsc | 3 | inactive |
| Obsc | 4 | active |
| Obsc | 5 | inactive |
| NijC | 1 | inactive |
